Among the data in article PMC12344264, “Mechanistic, in-silico and in vitro studies with nitrofurans reveal potent leishmanicidal activity and inhibition of trypanothione reductase” (International Journal for Parasitology: Drugs and Drug …, 2025) are Ki values, retold here.

Protein sequences, listed by entry. Tags and fused reporters are not part of them. Lines headed by an entry give the natural chain unless they say otherwise; changes in a name come on top.
UniProt P39050: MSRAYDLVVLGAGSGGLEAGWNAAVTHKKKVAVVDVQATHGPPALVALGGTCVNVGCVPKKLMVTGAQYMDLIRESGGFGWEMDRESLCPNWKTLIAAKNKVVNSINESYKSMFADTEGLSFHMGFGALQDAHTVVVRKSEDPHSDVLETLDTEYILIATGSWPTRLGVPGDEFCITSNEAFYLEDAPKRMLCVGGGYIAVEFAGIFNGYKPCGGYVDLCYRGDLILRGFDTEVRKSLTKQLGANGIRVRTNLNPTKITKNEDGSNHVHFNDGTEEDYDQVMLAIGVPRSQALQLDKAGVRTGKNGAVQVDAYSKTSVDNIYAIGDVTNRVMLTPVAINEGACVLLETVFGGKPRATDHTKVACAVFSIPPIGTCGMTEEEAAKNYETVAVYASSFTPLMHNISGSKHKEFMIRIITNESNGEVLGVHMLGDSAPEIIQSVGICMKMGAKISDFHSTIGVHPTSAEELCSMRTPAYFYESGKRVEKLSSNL

Each structure is given as a SMILES string.

This test addresses T1, L. donovani TryR (Leishmania donovani, UniProt P39050).
T1 construct: endogenous in cells; host or cells: L. donovani-iRFP (LV9) axenic amastigotes, crude cell extract
The test can be described thus: biochemical. As to the method: The activity of L. donovani TryR was measured in the presence of different concentrations of nitrofurans according to the protocol previously described ([Melcón-Fernández et al., 2023]). Briefly, 1 × 10^10 L. donovani-iRFP axenic amastigotes were washed twice in PBS and lysed with a solution containing 1 mM EDTA, 40 mM HEPES, 50 mM Tris HCl pH 7.5, 2 % (v/v) Triton X-100 and Pierce™ Protease Inhibitors Mini Tablets (ThermoFisher Scientific, Waltham, MA, USA). Cell extracts were prepared by mechanical disruption of the cells with 0.5 mm diameter glass beads (Merck, Darmstadt, Germany) and the supernatant obtained by centrifugation at 10,000 rcf for 5 min at 4 °C was used to measure TryR activity in 96-well plates. […] Cell extracts diluted in Tris HCl pH 7.5 (0.43 μg of total protein in 50 μL) were added to launch the reaction. The negative control consisted of 2.5 % DMSO, whereas the blank reaction included the TryR assay solution without T [S]2. […] To determine steady-state conditions, enzymatic activity was measured at 412 nm (ε = 14,150 M^−1 cm^−1) for a period of up to 120 min (with 5 min intervals) at 26 °C in a Varioskan Lux spectrophotometer (ThermoFisher Scientific, Waltham, MA, USA). The experiment was carried out in triplicate and included three technical replicates.

As usually defined, the Ki is a measure of affinity in units of concentration, obtained from inhibition or displacement. A higher Ki goes with weaker binding.

For the compound `CSc1ccc2c(c1)N(CCC1CCCCN1C)c1ccccc1S2` (stereo not shown) [Thioridazine, thioridazine], the Ki came to 5.79 ± 0.82 µM.
